Results are given in words; binding and its absence hold for the method and conditions named. Some results given as binding are weak or reduced against the parent protein; the word gives no strength.
Assays:
[1] = target: full-length catalytically inactive Caspase-8 (C360A) (UniProt Q14790); assay: cryo-EM structure; FADD:Caspase-8:FLAG-c-FLIPS complex co-expressed in HEK 293F, FLAG-purified, gradient fraction fixed with 0.1% glutaraldehyde; Titan Krios 300 kV; map of ~13 Å; published and threaded structures fitted as rigid bodies
[2] = target: full-length catalytically inactive Caspase-8 (C360A) (UniProt Q14790); assay: negative-stain EM (single-particle analysis, immuno-gold labelling); single glycerol gradient fractions of FLAG-purified co-expressed complexes, fixed with glutaraldehyde, uranyl acetate stain; 2D classes and low-resolution 3D maps (RELION, CryoSPARC); immuno-gold with anti-FLAG or anti-Caspase-8

Amino acid sequences for entries named in this document (tags omitted). A change or cut given only in a name is not applied to a line headed by its entry.
UniProt Q14790: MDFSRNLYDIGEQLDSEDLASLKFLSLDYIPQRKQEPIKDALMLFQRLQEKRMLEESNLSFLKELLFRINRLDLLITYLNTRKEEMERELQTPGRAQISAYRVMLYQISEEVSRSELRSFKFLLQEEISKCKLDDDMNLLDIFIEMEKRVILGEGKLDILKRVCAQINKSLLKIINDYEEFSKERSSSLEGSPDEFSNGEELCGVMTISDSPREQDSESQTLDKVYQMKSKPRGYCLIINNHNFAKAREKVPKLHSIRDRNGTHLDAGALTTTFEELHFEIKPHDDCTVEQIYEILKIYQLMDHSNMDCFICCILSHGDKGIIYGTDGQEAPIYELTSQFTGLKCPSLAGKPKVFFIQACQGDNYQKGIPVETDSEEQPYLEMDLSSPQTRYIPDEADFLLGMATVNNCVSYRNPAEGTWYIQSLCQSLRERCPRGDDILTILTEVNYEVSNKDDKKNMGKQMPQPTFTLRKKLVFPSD

For “full-length catalytically inactive Caspase-8 (C360A) (from UniProt Q14790 1-479) (enzyme)”, the binding [1] was “binds” and the binding [2] was “binds”.
